# In PubChem BioAssay AID662 (National Center for Advancing Translational Sciences (NCATS), 2007):
# Some of the results follow. Shown are side measurements of this screen, not its main read-out; they come without a call. Compounds called inactive in the main read-out are mostly missing here. The note in brackets gives the kind of curve behind each potency; many fits are weak.
# Experiment: Cell signaling CRE-BLA (Fsk stim)
# Details: CHO CRE-bla reporter (cAMP response element driving beta-lactamase), forskolin EC10, beta-lactamase ratio; measured here: 460 nm blue channel
# Method in brief: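 CRE-bla CHO reporter cells treated with compound titration plus EC10 NKH 477 (water-soluble forskolin), incubated 3 h at 37 °C; CCF4 loading 2 h at room temperature, 460/530 nm emission ratio read, AC50 values derived for positive or negative modulators.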
row,SMILES,AC50
1,Cc1ccc(NS(=O)(=O)c2cccc(C(=O)N3CCOCC3)c2)cc1,"5.01 µM [falling, partial curve]"
2,CCOC(=O)N1CCC(C(N)=O)CC1,"1.26 µM [falling, partial curve]"
3,CCCn1c(=O)c(C(=O)NCc2ccccn2)c(O)c2ccccc21,"5.01 µM [rising, partial curve]"
4,COc1ccc(C(=O)N(CN2CCCC2=O)c2nccs2)cc1OC,"3.16 µM [rising, full curve]"
5,CCOC(=O)c1cc(C)[nH]c(=S)c1C#N,"25.1 µM [rising, single point]"
6,CC1CN(S(=O)(=O)Cc2ccccc2)CC(C)O1 (stereo unspecified),"3.16 µM [rising, partial curve]"
7,O=c1cc(-c2ccccc2O)oc2cc(O)cc(O)c12,"31.6 µM [falling, single point]"
8,COCc1cc(C)nc2sc(C(=O)OC)c(N)c12,"15.8 µM [rising, single point]"
9,COc1cccc(Nc2ncc3nc(-c4ccc(Cl)cc4)c(=O)n(C4CC4)c3n2)c1,"3.98 µM [rising, partial curve]"
10,COC(=O)[C@@]1(Cc2ccc(OC)cc2)[C@H]2c3cc(C(=O)N4CCCC4)n(CCc4ccc(O)c(OC)c4)c3C[C@H]2CN1C(=O)c1ccccc1,"10 µM [rising, partial curve]"
11,O=C(O)COc1cccc(-c2ocnc2-c2nc(-c3ccccc3)c(-c3ccccc3)o2)c1,"12.6 µM [falling, partial curve]"
12,COc1ccc(C2C3=C(CCCC3=O)Nc3nc(SCc4ccccc4)nn32)cc1OC (stereo unspecified),"15.8 µM [rising, single point]"
13,N#CCCn1c(=O)c(-c2cc(F)cc(F)c2)nc2cnc(Oc3cccc(Cl)c3)nc21,"7.94 µM [rising, partial curve]"
14,COc1cccc(Nc2ncc3nc(C)c(=O)n(C[C@H]4CCCO4)c3n2)c1,"5.01 µM [rising, partial curve]"
15,CS(=O)(=O)c1ccc2nc(NC(=O)Cc3ccccc3)sc2c1,"25.1 µM [rising, single point]"
16,O=c1[nH]n(-c2cccc3cccnc23)c(=O)c2ccccc12,"0.126 µM [falling, full curve, poor fit]"
17,Cc1ccc(-c2nn(-c3ccccc3)cc2/C=C(\C#N)c2cccc(C#N)c2)o1,"6.31 µM [rising, partial curve]"
18,O=C(OCC(=O)N1CCc2ccccc21)c1ccccc1,"0.126 µM [falling, single point]"
19,Cc1nn(-c2ccccc2)c2sc(-c3n[nH]c(=S)o3)cc12,"0.316 µM [rising, full curve]"
20,O=C(C1CCCCC1)N1CCCC(c2nc3c(nnn3Cc3ccccc3)c(=O)[nH]2)C1 (stereo unspecified),"12.6 µM [rising, single point]"
21,COc1nc(Nc2cccc(C)c2)nc(N2CCCCC2)n1,"12.6 µM [rising, partial curve]"
22,O=C(CCCn1c(=O)[nH]c2ccsc2c1=O)N1CCN(c2ccccn2)CC1,"0.501 µM [falling, partial curve]"

row,SMILES,AC50
1,CCOC(=O)c1c(-c2ccccc2)csc1NC(=O)c1nn(CC)cc1Br,"2.51 µM [rising, full curve]"
2,CC(=O)N(Cc1cc2c(C)cc(C)cc2[nH]c1=O)C1CCCCC1,"12.6 µM [rising, single point]"
3,NS(=O)(=O)c1ccc(CCNC(=O)c2ccccc2F)cc1,"0.316 µM [falling, partial curve]"
4,CCC(C)N(C(=O)COC(=O)c1[nH]c(C)c(C(C)=O)c1C)C1CCS(=O)(=O)C1 (stereo unspecified),"0.00398 µM [falling, full curve, poor fit]"
5,Cn1c(CSc2nnc(SCc3ccccc3)s2)nc2ccccc21,"12.6 µM [rising, single point]"
6,COc1ncc2nc(-c3ccc(F)cc3)c(=O)n(-c3ccccc3)c2n1,"25.1 µM [rising, partial curve]"
7,Cc1cc2cc(CN3C(=O)c4ccccc4C3=O)ccc2[nH]1,"10 µM [rising, partial curve]"
8,COC(=O)c1cc(N2C(=O)C3C(C2=O)C2(C)C=CC3(C)O2)ccc1Cl (stereo unspecified),"10 µM [falling, partial curve]"
9,Cc1cc(-c2cccnc2)c(C#N)c(SCC#N)n1,"20 µM [rising, single point]"
10,CCN(CC)c1ccc(C2C(C(=O)OCCOC)=C(C)NC3=C2C(=O)CC(C)(C)C3)cc1 (stereo unspecified),"10 µM [rising, partial curve]"
11,CCCCOC(=O)c1ccc(NS(=O)(=O)c2cc(-c3nnnn3CC)ccc2OC)cc1,"25.1 µM [falling, single point]"
12,COc1cccc(-c2ccc3ncnc(Nc4ccccc4)c3c2)c1,"12.6 µM [rising, partial curve]"
13,CC(C)OP(=O)(c1ccc(N(C)C)cc1)C(O)c1c(Cl)cccc1Cl (stereo unspecified),"1 µM [rising, full curve, poor fit]"
14,COc1ccc(-c2noc(CSc3nnc(Cc4ccccc4)n3-c3cccc(C)c3)n2)cc1OC,"25.1 µM [rising, single point]"
15,COCCn1c(SCC(=O)Nc2ccccc2)nc2c1c(=O)[nH]c(=O)n2C,"10 µM [rising, single point]"
16,Cc1ccc(C)c(N(CC(=O)NCCSCc2ccco2)S(C)(=O)=O)c1,"0.158 µM [falling, full curve, poor fit]"
17,CCN(CCCNC(=O)COc1cc(=O)n(C)c2ccccc12)c1cccc(C)c1,"15.8 µM [rising, partial curve, poor fit]"
18,CCNc1ncc2nc(CCc3ccccc3)c(=O)n(Cc3cccc(OC)c3)c2n1,"10 µM [rising, partial curve]"
19,Nc1c(C(=O)NCc2ccc3c(c2)OCO3)c2nc3ccccc3nc2n1CCCN1CCOCC1,"12.6 µM [rising, partial curve]"
20,C=C(C)CSc1nc(N)c(C#N)c(-c2ccc(C)cc2)c1C#N,"2.51 µM [rising, full curve]"
21,Cc1ccc(C2CC(C(F)F)n3ncc(C(=O)Nc4cnn(Cc5ccccc5C)c4)c3N2)cc1 (stereo unspecified),"7.94 µM [falling, partial curve]"
22,Cc1csc(NC(=O)CCNS(=O)(=O)c2ccc3c(c2)c(=O)n(C)c(=O)n3C)n1,"20 µM [rising, single point]"

# Copied from the list:
# AC50, Cn1c(CSc2nnc(SCc3ccccc3)s2)nc2ccccc21 reads 12.6 µM [rising, single point]
# AC50, COCCn1c(SCC(=O)Nc2ccccc2)nc2c1c(=O)[nH]c(=O)n2C reads 10 µM [rising, single point]
# AC50, CCC(C)N(C(=O)COC(=O)c1[nH]c(C)c(C(C)=O)c1C)C1CCS(=O)(=O)C1 (stereo unspecified) reads 0.00398 µM [falling, full curve, poor fit]
# AC50, Cc1cc2cc(CN3C(=O)c4ccccc4C3=O)ccc2[nH]1 reads 10 µM [rising, partial curve]
# AC50, NS(=O)(=O)c1ccc(CCNC(=O)c2ccccc2F)cc1 reads 0.316 µM [falling, partial curve]

# More structures:

row,SMILES,AC50
1,Oc1ccc(O)cc1,"3.98 µM [falling, full curve]"
2,COc1ccc(S(=O)(=O)N2CC(C)N(S(=O)(=O)c3ccc(OC)cc3)CC2C)cc1 (stereo unspecified),"0.158 µM [rising, full curve]"
3,O=C(c1cccn2c(=O)c3cc(Cl)ccc3nc12)N1CCN(Cc2ccc3c(c2)OCO3)CC1,"1.26 µM [rising, full curve]"
4,COc1ccccc1CNc1nc(-c2ccc(C(=O)N(C)C)cc2)nc2ccccc12,"3.98 µM [rising, full curve]"
5,COCCn1c(C)cc(C(=O)CSc2nc(C)cc(C)c2C#N)c1C,"7.94 µM [rising, partial curve]"
6,O=C(C1CC1)N1CCc2cc(Br)cc(S(=O)(=O)NC3CCCCC3)c21,"10 µM [rising, single point]"
7,COc1ccc(CNC(=O)c2cc3c(=O)n4ccccc4nc3n(CC3CCCO3)c2=N)cc1 (stereo unspecified),"0.794 µM [rising, full curve]"
8,Cn1cc(-c2nc3cnc(Oc4cccc(Cl)c4)nc3n(CCC#N)c2=O)c2ccccc21,"2.51 µM [rising, full curve]"
9,Cc1ccc(-c2nn(C)c(=O)c3ccccc23)cc1S(=O)(=O)N1CCOCC1,"2.51 µM [rising, full curve]"
10,CSC1=C(C#N)C2(CCCC2)C(C#N)=C(N)N1,"0.00316 µM [rising, full curve, poor fit]"
11,CCCSc1nnc(Sc2nnnn2-c2ccccc2)s1,"3.16 µM [falling, partial curve]"
12,O=C(COc1ccccc1)NC1CCN(Cc2ccccc2)CC1,"25.1 µM [rising, single point]"
13,COC(=O)c1ccc(CSc2nc3sc4c(c3c(=O)n2C)CCCC4)o1,"1.58 µM [rising, partial curve]"
14,CCN(CC)CCCN(Cc1cc2cc3c(cc2[nH]c1=O)OCCO3)C(=O)Nc1ccc(F)cc1,"12.6 µM [rising, single point]"
15,CCCCCC(C)n1[nH]c(=O)c2c(C)cc(C)nc21 (stereo unspecified),"10 µM [rising, single point]"
16,CCOC(=O)c1[nH]cnc1C(=O)Nc1cccc(N)n1,"10 µM [rising, single point]"
17,O=C(CSc1ncn[nH]1)Nc1nc(-c2ccccc2)ns1,"12.6 µM [rising, partial curve]"
18,Clc1ccccc1-c1nc(Nc2ccncc2)c2ccccc2n1,"5.01 µM [rising, full curve, poor fit]"
19,N#Cc1cccc(-c2nc(N3CCNCC3)c3ccccc3n2)c1,"12.6 µM [rising, single point]"
20,COc1ccc(C2CC(=O)N3CN(c4ccccc4F)CSC3=C2C#N)cc1OC (stereo unspecified),"10 µM [rising, single point]"
21,CCOc1ccc(CC(=O)Nc2c(C(N)=O)oc3ccccc23)cc1OCC,"7.94 µM [rising, partial curve]"
22,CC(=O)N1CCc2cc(Br)cc(S(=O)(=O)N3CCN(C(=O)c4ccco4)CC3)c21,"15.8 µM [rising, single point]"
